# Library screen at single concentrations

The chains behind the UniProt entries cited, without tags or fusion partners. Residues count along the entry.
UniProt A4I591, 1-473: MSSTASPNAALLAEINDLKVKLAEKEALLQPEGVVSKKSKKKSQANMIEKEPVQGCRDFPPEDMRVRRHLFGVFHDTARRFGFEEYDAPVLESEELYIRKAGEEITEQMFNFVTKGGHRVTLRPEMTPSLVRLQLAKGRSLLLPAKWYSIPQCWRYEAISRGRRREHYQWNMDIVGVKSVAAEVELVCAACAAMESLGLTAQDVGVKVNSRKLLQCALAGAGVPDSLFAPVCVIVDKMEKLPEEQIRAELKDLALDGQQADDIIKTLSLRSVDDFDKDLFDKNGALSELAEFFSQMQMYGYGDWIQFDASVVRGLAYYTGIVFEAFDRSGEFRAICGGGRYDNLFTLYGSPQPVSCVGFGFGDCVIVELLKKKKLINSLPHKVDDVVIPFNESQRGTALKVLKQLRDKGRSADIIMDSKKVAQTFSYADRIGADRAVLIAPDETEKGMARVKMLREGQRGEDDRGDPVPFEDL
UniProt P9WFT3, whole entry: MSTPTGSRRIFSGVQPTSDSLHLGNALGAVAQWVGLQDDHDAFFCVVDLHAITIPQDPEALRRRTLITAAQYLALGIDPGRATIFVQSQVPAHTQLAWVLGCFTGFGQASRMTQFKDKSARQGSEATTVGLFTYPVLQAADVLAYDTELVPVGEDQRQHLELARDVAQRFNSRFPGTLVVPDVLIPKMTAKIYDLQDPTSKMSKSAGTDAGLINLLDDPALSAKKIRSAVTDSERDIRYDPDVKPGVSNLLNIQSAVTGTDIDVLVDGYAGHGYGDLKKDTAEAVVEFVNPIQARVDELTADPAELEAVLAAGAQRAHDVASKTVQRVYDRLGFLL
UniProt P9WNZ1, whole entry: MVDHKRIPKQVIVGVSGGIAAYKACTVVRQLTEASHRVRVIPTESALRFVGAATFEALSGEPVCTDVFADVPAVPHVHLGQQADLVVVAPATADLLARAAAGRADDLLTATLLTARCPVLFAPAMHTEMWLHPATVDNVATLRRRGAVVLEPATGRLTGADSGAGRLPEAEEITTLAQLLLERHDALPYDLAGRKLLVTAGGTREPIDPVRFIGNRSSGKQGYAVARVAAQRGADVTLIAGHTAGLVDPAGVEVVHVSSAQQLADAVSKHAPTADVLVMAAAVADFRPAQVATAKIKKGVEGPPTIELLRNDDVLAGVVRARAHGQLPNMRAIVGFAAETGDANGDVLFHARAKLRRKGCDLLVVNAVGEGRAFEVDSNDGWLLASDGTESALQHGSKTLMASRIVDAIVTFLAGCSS

Results are given as percent effect. The controls that fix the scale are not given in the record; negative values are as filed. The compounds are a random part of those screened. A dash means the value is not listed here; it may have been measured.

LiHisRS: 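Enzyme assay of histidyl-tRNA synthetase; the read-out is not stated. Target: Histidine-tRNA ligase, Leishmania infantum (UniProt A4I591). Concentration: 30 µM. The record gives no direction; compounds that gave an IC50 in retests scored well above the rest, so higher reads as stronger inhibition. The assay is labelled LdHisRS but filed under L. infantum. Size under these conditions: about 69,000 compounds, about 410 of them at 50% or above in at least one test.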
MtTrpRS: 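Tryptophan-tRNA ligase, Mycobacterium tuberculosis (UniProt P9WFT3). Enzyme assay of tryptophanyl-tRNA synthetase; the read-out is not stated. Compounds at 10 µM. Direction is not recorded; retested compounds ran higher, which suggests that high means inhibition. Size under these conditions: about 65,000 compounds, about 64 of them at 50% or above in at least one test.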
CoaBC: 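Enzyme assay of CoaBC with a phosphate dye (Biomol Green) read at 650 nm. Target: Coenzyme A biosynthesis protein CoaBC, Mycobacterium tuberculosis (UniProt P9WNZ1). Concentration: 30 µM. Higher reads as stronger inhibition, judged from the few compounds that gave an IC50. Most strong results did not repeat in a second test. Of about 67,000 compounds tested this way, about 40 (0.06%) reached 50% or more in at least one test.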

| Compound | LiHisRS | MtTrpRS | CoaBC |
|---|---|---|---|
| `Cc1ccc2c(c1)N(C(=O)c1cc[nH]c(=O)c1)CC(C)O2` (stereo unspecified) | 5.319 | 4.903 | 1.347 |
| `CCn1cc(N2Cc3nc(N4CCN(C)CC4)ncc3C2=O)cn1` | 19.42 | 5.628 | 1.75 |
| `Cc1c(NC(C)C(C)C)cccc1C(=O)NCc1ccnn1C` (stereo unspecified) | 6.14 | 0.3112 | 9.234 |
| `O=C1CC[C@@H](C(=O)N2CCc3[nH]nc(COc4cccc(Cl)c4)c3C2)N1` | 2.632 | -4.262 | 5.645 |
| `FC(F)(F)Cn1ccnc1CN1CCOC(Cn2cccn2)C1` (stereo unspecified) | 10.81 | -3.606 | 0.7833 |
| `O=C(N1CCCO1)[C@@]12CCO[C@@H]1CCN(Cc1cccs1)C2` | 1.389 | 27.57 | -11.96 |
| `O=C(CCN1CCCO1)N1CC[C@@H](CNC(=O)N2CCCC2)[C@H](O)C1` | 3.101 | -5.665 | -3.317 |
| `Cc1ccccc1C(=O)N1CCC(n2nnc3cc(F)ccc32)CC1` | 13.87 | -1.41 | 3.886 |
| `O=C(c1ccncc1)N1CCn2c(nnc2-c2ccccc2)C1` | 28.57 | 2.58 | - |
| `CS(=O)(=O)Cc1cccc(C(=O)NCC2Cc3ccccc3O2)c1` (stereo unspecified) | 15.38 | 4.633 | 0.2132 |
| `O=C(C1CCOC1)N1CCc2ncc(CNc3ccccn3)n2CC1` (stereo unspecified) | 3.922 | 0.2876 | 0.6435 |
| `CN(Cc1cccc(Cl)c1)Cc1nnsc1Cl` | 6.14 | -0.7261 | -0.9823 |
| `O=C(Cc1ccc(F)cc1)N1CCn2c(Cn3cncn3)cnc2C1` | 8 | -1.251 | 3.5 |
| `CN(Cc1cccc(F)c1)C(=O)c1ccncc1Cl` | 0 | -5.307 | 0.6036 |
| `O=C(O)CCC(=O)N1CCC(c2noc3cc(F)ccc23)CC1` | 10.87 | 1.328 | 0.9685 |
| `CC(C)c1nnc2n1CCN(C(=O)c1ccc3c(c1)NC(=O)CO3)C2` | 17.95 | 1.024 | 9.054 |
| `COC(=O)c1cc(C(=O)N2CCc3ccc(F)cc3C2C)ccn1` (stereo unspecified) | 8.547 | -8.637 | 3.846 |
| `Cc1cccc(SC2CCN(Cc3nc(CC4CC4)no3)CC2)c1` | -16.42 | -2.093 | 3.213 |
| `CC(C)(C)OC(=O)NC(C)(C)c1noc(CSc2nncs2)n1` | 3.306 | -5.629 | -2.372 |
| `CC(O)CN1CCC(CNCc2ccccc2C(F)(F)F)CC1` (stereo unspecified) | -3.67 | 14.56 | 2.302 |
| `CCCNC(=O)CCNC1CSCCc2ccccc21` (stereo unspecified) | 5 | -3.905 | -2.927 |
| `O=C([C@H]1C[C@H]2OCC[C@H]2N(Cc2cccnc2)C1)N1CCCCO1` | 20 | -2.658 | 4.75 |
| `COC(CNC(=O)NCc1c(C)cc(C)[nH]c1=O)c1ccccc1` (stereo unspecified) | 7.895 | -4.42 | 1.434 |
| `Cc1ccc(CCCC(=O)N2CCN(C3CCCN(C)C3)CC2)s1` (stereo unspecified) | 15.79 | 0.4772 | 2.025 |
| `CCn1cc(C(=O)N2C[C@H]3C[C@H](Oc4ccccc4)C[C@H]3C2)cn1` | 11.51 | -1.953 | 1.196 |
| `OCCn1cc(CN2CCN(CCOc3cccc(F)c3)CC2)cn1` | 16.51 | -0.387 | 7.846 |
| `O=C(CO)N1CCC(c2ccnc(Nc3cc(C(F)(F)F)ccn3)n2)C1` (stereo unspecified) | 22.7 | 3.357 | 1.166 |
| `O=C(Cn1cc(-c2ccccc2)ncc1=O)Nc1nc(C2CC2)n[nH]1` | 23.38 | 1.36 | 1.022 |
| `Cc1ccc(C)c(C(=O)NC2CCC(N3C(=O)CCC3=O)CC2)c1` (stereo unspecified) | 13.7 | 0.5948 | -8.182 |
| `COCC(=O)Nc1ccc(-c2noc([C@@H]3CCCN3CC(C)C)n2)cn1` | 2.778 | 3.238 | -3.837 |
| `Cc1cc(C)nc(CN(C)c2nc(C3CCCC3)nc3c2cnn3C)c1` | -31.46 | 1.614 | 4.693 |
| `CCc1ncnc2c1CCN(CCOC)CC2` | 13.51 | - | 2.475 |
| `COc1c(CNCc2ccc(Cn3ccnc3)cc2)c(C)nn1C` | 19.64 | -7.045 | 6.579 |
| `O=S(=O)(CCCN1CCOC(Cn2cccn2)C1)c1ccccc1` (stereo unspecified) | 6.061 | -0.6463 | -5.325 |
| `CS(=O)(=O)N1CCCC1c1cccc(Nc2nccs2)n1` (stereo unspecified) | 6.207 | 8.314 | 2.843 |
| `CC1CCCN1Cc1cccc(C(=O)Nc2ccc3[nH]c(=O)oc3c2)c1` (stereo unspecified) | 28.21 | 19.65 | -1.006 |
| `CN(C)CCn1c2c(ccc1=O)CC(NC(=O)c1ccsc1)CC2` (stereo unspecified) | -32.08 | - | 0.9756 |
| `Cn1ccnc1CN1CCCN(C(=O)CC(C2CC2)C2CC2)CC1` | 2.609 | 1.022 | -2.672 |
| `N#Cc1cccc(N2CC3(CCN(C(=O)c4ccnnc4)C3)CC2=O)c1` (stereo unspecified) | 16.36 | -3.139 | -15.55 |
| `CN1CCc2c(C#N)c(NCc3ccccc3)n3cnnc3c2C1` | -10.53 | 2.658 | 1.013 |
| `O=C1CC2(CCN(CC3CCOC3)CC2)CN1Cc1cc(F)cc(F)c1` (stereo unspecified) | 16.35 | 1.706 | 7.595 |
| `CCCS(=O)(=O)N1CCOC2(CCCN(Cc3ccccn3)C2)C1` (stereo unspecified) | -16.98 | - | 0 |
| `CCCOc1ccc(C(=O)N2CCN3CCNC(=O)C3C2)cc1Cl` (stereo unspecified) | 15.83 | -2.064 | - |
| `CCn1c(C2CCCN2Cc2noc(C(C)(C)C)n2)nc2ccccc21` (stereo unspecified) | 10.84 | 2.448 | -0.1255 |
| `CC(C)c1noc(CCCC(=O)N2CCN(Cc3ccccn3)CC2)n1` | 14.55 | -6.198 | 8.673 |
| `CC(C)(NS(C)(=O)=O)c1nc(-c2ccc(F)cc2Cl)no1` | 18.68 | 2.265 | -0.4819 |
| `CC(C)C1CN(C(=O)c2ccc(C(N)=O)cc2)CCS1` (stereo unspecified) | 8.491 | -0.4143 | 3.182 |
| `Nc1nc(C2CCN(C(=O)c3cnco3)CC2)cs1` | 4.124 | - | 3.148 |
| `COCc1nc(C(=O)N2CCCC(n3nc(C)nc3C)C2)cs1` (stereo unspecified) | 13.16 | 11.44 | 4.307 |
| `CCCNC(=O)CN1CCC(C(=O)Nc2cnn(CC)c2)CC1` | 13.64 | -0.6823 | 8.18 |
| `Cc1cc(Br)oc1C(=O)N1CCCN(CC(N)=O)CC1` | 14.52 | -2.428 | -0.7335 |
| `Cc1nn(C)cc1C(C)Nc1ncnc2sccc12` (stereo unspecified) | -8.511 | -2.475 | -2.978 |
| `Cc1csc(N2CCCN(C(=O)c3csc(C)n3)CC2)n1` | 12.07 | -6.734 | 3.916 |
| `COC(=O)CCCn1ccnc1-c1ccc(OC)c(F)c1F` | 13.7 | 1.043 | 19.8 |
| `CN(C)c1cc(C(=O)N2CCCC(n3cccn3)C2)ccn1` (stereo unspecified) | 14.89 | 0.3712 | -3.368 |
| `CC(C(=O)O)n1nc(C(F)(F)F)c(Br)c1C1CC1` (stereo unspecified) | 11.11 | 2.673 | 4.082 |
| `CC(C)CN1CCCn2nc(CNC(=O)c3cccnc3O)cc2C1` | 16.5 | 2.664 | 9.375 |
| `COCCCN1CC2(CCN(C(=O)c3ccc(=O)n(C)c3)CC2)CC1=O` | 17.65 | 3.634 | 9.061 |
| `O=C(Nc1nc2c(s1)CN(S(=O)(=O)C1CC1)CC2)c1cccc(Cl)c1` | 20.51 | 3.595 | 2.29 |
| `Cc1n[nH]c(C)c1CNC(=O)NC1CCCCC1` | 11.69 | 0.2337 | 6.329 |
| `O=C(CC1CCCC1)N1CCCC1c1ccc(CN2CCOCC2)cn1` (stereo unspecified) | 4.317 | -2.865 | -4.545 |
| `Cc1ccc(CC(=O)NC2CCN(c3cccc(Cl)c3)C2)cn1` (stereo unspecified) | 20.83 | 3.653 | 0.9615 |
| `COc1ccc(-c2cccc(-c3ccn(CCCN(C)C)n3)c2)nn1` | 5.833 | -2.026 | 5.839 |
| `CCc1nc(N2CCC3(CC2)CC(=O)N(Cc2ccc(Cl)cc2)C3)no1` | 15.05 | 3.417 | 7.295 |
| `Cc1ccc(NC2CCN(C(=O)c3cccc4cccnc34)CC2)nn1` | 0 | -2.726 | 0.4545 |
| `COc1ccc(CN(C)[C@@H]2COC[C@H]2c2ccc(F)cc2)cc1` | 14.08 | -0.7916 | -2.713 |

Once more, the final 5:

Compound	LiHisRS	MtTrpRS	CoaBC
Cc1ccc(CC(=O)NC2CCN(c3cccc(Cl)c3)C2)cn1 (stereo unspecified)	20.83	3.653	0.9615
COc1ccc(-c2cccc(-c3ccn(CCCN(C)C)n3)c2)nn1	5.833	-2.026	5.839
CCc1nc(N2CCC3(CC2)CC(=O)N(Cc2ccc(Cl)cc2)C3)no1	15.05	3.417	7.295
Cc1ccc(NC2CCN(C(=O)c3cccc4cccnc34)CC2)nn1	0	-2.726	0.4545
COc1ccc(CN(C)[C@@H]2COC[C@H]2c2ccc(F)cc2)cc1	14.08	-0.7916	-2.713

Source: ChEMBL document CHEMBL3988442, “University of Dundee, Small-Polar-MMV Screening Library” (2021).